Our source for the binding values is publication doi:10.1101/500082.

By UniProt entry, the sequences of proteins in these tests, tags left out.
UniProt P16157: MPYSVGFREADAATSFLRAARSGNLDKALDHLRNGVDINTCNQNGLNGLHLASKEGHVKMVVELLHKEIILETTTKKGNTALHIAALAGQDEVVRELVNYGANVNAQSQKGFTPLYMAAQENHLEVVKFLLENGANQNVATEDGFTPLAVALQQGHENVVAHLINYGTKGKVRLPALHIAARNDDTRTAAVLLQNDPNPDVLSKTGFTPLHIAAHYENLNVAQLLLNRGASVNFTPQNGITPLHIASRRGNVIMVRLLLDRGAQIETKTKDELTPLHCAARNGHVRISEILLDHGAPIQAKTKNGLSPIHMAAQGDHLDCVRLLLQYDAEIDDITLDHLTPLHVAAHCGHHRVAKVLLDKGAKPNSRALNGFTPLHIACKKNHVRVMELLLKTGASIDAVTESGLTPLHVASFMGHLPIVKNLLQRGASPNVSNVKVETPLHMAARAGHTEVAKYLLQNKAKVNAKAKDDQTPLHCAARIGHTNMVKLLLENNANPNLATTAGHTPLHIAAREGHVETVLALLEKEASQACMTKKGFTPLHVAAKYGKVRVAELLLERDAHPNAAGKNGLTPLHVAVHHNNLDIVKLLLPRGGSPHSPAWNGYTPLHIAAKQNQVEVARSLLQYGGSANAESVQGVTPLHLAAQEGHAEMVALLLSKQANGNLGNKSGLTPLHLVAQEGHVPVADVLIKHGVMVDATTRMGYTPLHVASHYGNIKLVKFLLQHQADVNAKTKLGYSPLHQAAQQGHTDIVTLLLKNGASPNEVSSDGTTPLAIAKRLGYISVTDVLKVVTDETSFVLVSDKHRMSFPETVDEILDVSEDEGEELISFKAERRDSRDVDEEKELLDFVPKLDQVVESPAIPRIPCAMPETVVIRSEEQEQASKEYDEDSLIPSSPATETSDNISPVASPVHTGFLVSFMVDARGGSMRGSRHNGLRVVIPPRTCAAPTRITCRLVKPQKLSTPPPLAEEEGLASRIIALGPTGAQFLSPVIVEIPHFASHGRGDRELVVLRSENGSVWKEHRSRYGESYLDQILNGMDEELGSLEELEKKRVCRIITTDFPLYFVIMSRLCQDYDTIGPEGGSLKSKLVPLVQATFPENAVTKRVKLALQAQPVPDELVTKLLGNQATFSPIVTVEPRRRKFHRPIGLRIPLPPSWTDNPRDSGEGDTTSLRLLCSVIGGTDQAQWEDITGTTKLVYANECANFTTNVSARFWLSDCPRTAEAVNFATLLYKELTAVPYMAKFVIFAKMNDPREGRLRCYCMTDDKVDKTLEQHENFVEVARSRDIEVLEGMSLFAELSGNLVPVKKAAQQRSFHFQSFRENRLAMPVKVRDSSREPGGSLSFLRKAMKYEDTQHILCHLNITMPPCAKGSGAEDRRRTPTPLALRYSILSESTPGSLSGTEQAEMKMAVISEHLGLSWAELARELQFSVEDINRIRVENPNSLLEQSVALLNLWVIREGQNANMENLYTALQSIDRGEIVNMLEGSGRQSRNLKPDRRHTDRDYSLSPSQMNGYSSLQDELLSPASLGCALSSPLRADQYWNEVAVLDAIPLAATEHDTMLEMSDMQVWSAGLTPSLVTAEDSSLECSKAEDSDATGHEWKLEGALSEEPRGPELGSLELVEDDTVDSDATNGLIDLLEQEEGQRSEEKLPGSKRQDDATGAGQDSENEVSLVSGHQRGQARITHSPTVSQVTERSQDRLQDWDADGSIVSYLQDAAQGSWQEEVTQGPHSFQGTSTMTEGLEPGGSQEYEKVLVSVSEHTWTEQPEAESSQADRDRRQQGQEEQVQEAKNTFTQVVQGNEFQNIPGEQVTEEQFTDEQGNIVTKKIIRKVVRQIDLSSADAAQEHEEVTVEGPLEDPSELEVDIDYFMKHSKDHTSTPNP
UniProt Q7L804: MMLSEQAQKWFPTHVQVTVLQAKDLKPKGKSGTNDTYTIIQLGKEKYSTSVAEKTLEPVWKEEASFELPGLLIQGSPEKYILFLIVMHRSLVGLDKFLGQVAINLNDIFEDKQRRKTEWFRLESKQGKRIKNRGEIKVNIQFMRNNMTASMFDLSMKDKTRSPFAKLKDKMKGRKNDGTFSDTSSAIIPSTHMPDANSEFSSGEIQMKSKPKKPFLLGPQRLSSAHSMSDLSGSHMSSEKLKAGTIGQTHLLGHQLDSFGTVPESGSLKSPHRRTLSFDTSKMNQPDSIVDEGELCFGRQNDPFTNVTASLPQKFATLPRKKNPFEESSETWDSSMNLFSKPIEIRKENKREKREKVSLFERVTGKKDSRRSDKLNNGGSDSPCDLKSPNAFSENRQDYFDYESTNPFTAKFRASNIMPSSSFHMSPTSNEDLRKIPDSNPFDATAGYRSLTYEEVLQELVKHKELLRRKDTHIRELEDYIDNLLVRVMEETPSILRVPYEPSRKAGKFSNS

Results are given in words; binding and its absence hold for the method and conditions named. Binding seen in cells or lysates may run through a third protein. Some entries that bind do so weakly or less than the wild type. Sequences can lack the tags named with a protein.

What all share (assay): co-IP
One assay has as its target T1, GFP-Rabenosyn-5 (human) (UniProt Q9H1K0).
T1 sequence: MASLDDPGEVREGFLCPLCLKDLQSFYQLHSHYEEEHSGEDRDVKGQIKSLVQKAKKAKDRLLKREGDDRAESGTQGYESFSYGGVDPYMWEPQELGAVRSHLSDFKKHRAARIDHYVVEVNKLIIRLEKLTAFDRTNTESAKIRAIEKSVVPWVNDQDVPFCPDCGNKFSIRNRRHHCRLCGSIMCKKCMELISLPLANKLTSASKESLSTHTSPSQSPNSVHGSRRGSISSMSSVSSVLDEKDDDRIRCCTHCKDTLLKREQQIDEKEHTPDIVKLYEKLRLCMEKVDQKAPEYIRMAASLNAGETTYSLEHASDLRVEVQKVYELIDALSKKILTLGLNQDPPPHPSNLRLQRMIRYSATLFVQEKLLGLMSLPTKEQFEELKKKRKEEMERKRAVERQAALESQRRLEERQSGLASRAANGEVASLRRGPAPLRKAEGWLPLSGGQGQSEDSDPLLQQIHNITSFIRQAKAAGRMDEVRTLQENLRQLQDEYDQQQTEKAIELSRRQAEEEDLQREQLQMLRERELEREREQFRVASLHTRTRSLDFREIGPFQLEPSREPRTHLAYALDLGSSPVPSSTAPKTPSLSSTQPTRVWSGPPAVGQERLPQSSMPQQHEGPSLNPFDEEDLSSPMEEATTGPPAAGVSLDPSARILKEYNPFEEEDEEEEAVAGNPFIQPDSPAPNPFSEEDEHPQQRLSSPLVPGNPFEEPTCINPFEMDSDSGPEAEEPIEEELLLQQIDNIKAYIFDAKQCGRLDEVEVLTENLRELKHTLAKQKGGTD

Another assay deals with T2, myc-Rabenosyn-5 (human) (UniProt Q9H1K0).
T2 sequence: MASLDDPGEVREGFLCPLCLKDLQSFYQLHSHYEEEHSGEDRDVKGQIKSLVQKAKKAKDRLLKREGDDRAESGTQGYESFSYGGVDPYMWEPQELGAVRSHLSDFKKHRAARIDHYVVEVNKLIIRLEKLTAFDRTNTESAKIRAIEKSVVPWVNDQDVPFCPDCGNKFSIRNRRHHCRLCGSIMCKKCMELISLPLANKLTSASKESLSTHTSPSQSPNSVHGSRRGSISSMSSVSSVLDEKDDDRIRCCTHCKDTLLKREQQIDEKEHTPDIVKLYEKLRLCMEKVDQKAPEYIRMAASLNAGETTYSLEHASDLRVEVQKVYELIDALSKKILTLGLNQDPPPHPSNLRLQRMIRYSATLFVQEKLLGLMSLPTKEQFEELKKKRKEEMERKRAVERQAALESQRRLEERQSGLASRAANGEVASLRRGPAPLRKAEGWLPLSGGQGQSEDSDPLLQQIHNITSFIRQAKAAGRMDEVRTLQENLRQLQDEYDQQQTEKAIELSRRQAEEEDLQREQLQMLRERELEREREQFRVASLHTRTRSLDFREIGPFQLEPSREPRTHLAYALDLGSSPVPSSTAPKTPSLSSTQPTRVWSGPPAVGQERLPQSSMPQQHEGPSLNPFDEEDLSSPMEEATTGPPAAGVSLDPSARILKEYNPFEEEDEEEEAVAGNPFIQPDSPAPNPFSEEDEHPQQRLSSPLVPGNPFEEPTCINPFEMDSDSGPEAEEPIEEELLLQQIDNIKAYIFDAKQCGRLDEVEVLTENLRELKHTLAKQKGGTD

For the next assay, the target named is T3, myc-VPS45 (human) (UniProt Q9NRW7).
T3 sequence: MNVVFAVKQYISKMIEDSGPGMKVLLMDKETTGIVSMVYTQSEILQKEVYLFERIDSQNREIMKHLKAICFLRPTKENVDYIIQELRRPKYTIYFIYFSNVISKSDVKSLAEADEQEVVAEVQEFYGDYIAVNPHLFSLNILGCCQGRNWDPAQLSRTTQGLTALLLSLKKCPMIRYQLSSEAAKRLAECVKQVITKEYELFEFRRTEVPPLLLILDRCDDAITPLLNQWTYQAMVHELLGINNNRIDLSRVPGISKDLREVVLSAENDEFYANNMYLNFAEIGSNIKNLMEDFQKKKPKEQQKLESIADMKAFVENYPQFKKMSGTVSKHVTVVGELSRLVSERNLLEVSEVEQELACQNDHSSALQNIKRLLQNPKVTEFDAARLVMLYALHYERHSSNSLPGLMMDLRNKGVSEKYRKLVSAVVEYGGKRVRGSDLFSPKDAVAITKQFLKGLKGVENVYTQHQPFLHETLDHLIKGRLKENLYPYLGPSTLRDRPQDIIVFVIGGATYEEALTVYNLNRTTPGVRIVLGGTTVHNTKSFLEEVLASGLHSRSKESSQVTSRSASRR

A further assay addresses T4, VPS33B-Myc-DDK (human) (UniProt Q9H267).
T4 sequence: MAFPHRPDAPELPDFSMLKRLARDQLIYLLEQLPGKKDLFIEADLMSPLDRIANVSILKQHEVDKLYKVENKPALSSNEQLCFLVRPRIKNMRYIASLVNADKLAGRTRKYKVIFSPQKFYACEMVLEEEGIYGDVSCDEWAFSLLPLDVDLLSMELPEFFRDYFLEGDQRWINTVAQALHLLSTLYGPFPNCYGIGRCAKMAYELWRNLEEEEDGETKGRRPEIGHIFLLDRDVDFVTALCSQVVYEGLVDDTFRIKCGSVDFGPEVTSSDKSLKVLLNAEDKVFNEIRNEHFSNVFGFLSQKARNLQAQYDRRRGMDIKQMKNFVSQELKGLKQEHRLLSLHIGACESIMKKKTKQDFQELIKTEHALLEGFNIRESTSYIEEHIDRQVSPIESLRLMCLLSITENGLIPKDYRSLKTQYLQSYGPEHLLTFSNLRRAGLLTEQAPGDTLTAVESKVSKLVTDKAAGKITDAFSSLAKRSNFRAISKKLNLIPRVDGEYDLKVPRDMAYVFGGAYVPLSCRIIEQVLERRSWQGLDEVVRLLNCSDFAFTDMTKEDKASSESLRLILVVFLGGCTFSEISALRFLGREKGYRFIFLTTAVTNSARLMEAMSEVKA

As for myc-ANK1 (from UniProt P16157 1-1881), the binding result with GFP-Rabenosyn-5 (human) is recorded as “binds”.

With “myc-Rab11FIP2 (from UniProt Q7L804 1-512)”, the binding result with GFP-Rabenosyn-5 (human) is on record as “no binding”.

B1: endogenous VIPAS39 (protein, UniProt Q9H9C1 1-493)
chain: MNRTKGDEEEYWNSSKFKAFTFDDEDDELSQLKESKRAVNSLRDFVDDDDDDDLERVSWSGEPVGSISWSIRETAGNSGSTHEGREQLKSRNSFSSYAQLPKPTSTYSLSSFFRGRTRPGSFQSLSDALSDTPAKSYAPELGRPKGEYRDYSNDWSPSDTVRRLRKGKVCSLERFRSLQDKLQLLEEAVSMHDGNVITAVLIFLKRTLSKEILFRELEVRQVALRHLIHFLKEIGDQKLLLDLFRFLDRTEELALSHYREHLNIQDPDKRKEFLKTCVGLPFSAEDSAHIQDHYTLLERQIIIEANDRHLESAGQTEIFRKHPRKASILNMPLVTTLFYSCFYHYTEAEGTFSSPVNLKKTFKIPDKQYVLTALAARAKLRAWNDVDALFTTKNWLGYTKKRAPIGFHRVVEILHKNNAPVQILQEYVNLVEDVDTKLNLATKFKCHDVVIDTYRDLKDRQQLLAYRSKVDKGSAEEEKIDALLSSSQIRWKN
Take B1: the binding result in the assay with myc-Rabenosyn-5 (human), with myc-VPS45 (human) and with VPS33B-Myc-DDK (human) was “binds” in each case.
